8 molecules from paper PMC11882097 can be followed below.

No constants are given. Whether binding was seen depends on the method and setting. Binding seen in cells or lysates may run through a third protein. For some assays here: Binding can be weak; no strength is given. For some assays here: Where a sequence is shown, tags or fusion partners need not be part of it.

Assay [1] has as its target T1, NbSGS3-Y^N (N. benthamiana) (UniProt X4YFK1).
T1 sequence: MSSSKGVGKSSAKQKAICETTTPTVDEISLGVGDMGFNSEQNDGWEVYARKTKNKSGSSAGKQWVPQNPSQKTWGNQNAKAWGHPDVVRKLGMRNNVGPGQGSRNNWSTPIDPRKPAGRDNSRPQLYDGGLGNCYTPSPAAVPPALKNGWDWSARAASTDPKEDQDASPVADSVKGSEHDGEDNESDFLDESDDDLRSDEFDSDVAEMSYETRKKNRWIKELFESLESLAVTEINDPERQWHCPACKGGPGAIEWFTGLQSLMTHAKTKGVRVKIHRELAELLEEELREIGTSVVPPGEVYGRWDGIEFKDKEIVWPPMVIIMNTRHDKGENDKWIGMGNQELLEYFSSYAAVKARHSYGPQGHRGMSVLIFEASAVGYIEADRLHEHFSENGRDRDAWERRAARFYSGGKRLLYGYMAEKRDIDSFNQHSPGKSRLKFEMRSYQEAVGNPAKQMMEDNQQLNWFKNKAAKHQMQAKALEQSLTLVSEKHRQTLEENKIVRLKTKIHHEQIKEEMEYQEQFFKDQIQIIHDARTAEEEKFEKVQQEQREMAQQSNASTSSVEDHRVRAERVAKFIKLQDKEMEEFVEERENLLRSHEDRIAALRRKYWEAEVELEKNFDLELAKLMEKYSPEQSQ
Description: split reporter; BiFC of YN and YC fusions co-agroinfiltrated 1:1 into N. benthamiana leaves; YFP signal by confocal microscopy at 48-72 hpi.

For assay [2], the target named is T2, YFP-NbSGS3 (N. benthamiana) (UniProt X4YFK1).
T2 sequence: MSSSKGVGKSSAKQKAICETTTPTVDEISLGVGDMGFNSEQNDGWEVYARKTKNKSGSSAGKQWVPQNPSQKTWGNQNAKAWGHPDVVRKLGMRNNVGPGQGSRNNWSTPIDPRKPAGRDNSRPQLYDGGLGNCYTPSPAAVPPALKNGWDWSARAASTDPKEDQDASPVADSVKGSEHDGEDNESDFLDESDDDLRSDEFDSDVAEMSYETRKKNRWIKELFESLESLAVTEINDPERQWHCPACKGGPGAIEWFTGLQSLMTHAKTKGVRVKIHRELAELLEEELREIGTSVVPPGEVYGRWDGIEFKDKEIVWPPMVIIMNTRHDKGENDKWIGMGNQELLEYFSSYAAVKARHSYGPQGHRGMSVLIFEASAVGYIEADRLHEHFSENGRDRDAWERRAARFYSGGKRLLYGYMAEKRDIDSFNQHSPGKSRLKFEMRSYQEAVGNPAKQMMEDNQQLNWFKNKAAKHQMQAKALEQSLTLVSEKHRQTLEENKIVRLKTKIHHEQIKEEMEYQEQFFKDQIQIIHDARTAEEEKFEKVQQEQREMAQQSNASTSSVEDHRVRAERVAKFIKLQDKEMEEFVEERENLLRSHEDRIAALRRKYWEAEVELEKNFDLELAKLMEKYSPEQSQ
Briefly: pull-down; YFP-NbSGS3 from N. benthamiana leaves precipitated on GFP-Trap beads; purified GST-p20 or GST added, 2 h at 4 °C; immunoblot; only the binder purified.

The target in assay [3] is p20-YFP-Flag (citrus tristeza virus (isolate N21)). Briefly: co-IP; total protein of agroinfiltrated N. benthamiana leaves; anti-Flag M2 affinity gel, 2-4 h at 4 °C; 25 mM Tris pH 7.5, 150 mM NaCl, 0.1% NP40; immunoblot. A general note: A western blot detects proteins with antibodies after separation by electrophoresis.
Assay [4] addresses Y^C-NbATG8f (N. benthamiana). Description: split reporter; BiFC of YN and YC fusions co-agroinfiltrated 1:1 into N. benthamiana leaves; YFP signal by confocal microscopy at 48-72 hpi.

In the case of “p20^mAIM3-Y^C (citrus tristeza virus (isolate N21))”, the binding result in assay [1] is reported as “binds”.

“p20^mAIM2-Y^C (citrus tristeza virus (isolate N21))”: in assay [1], the binding entry was “binds”.

Regarding “His-GST-p20 (citrus tristeza virus (isolate N21))”, the binding entry in assay [2] was “binds”.

As to “p20^mAIM1-Y^C (citrus tristeza virus (isolate N21))”, the binding entry in assay [1] is reported as “binds”.

As to “p20^mAIM5-Y^C (citrus tristeza virus (isolate N21))”, the binding result in assay [1] is reported as “binds”.

For “p20^mAIM4-Y^C (citrus tristeza virus (isolate N21))”, in assay [1], the binding entry is “binds”.

B1: NbSGS3-CFP-HA (protein, UniProt X4YFK1 1-635)
chain: MSSSKGVGKSSAKQKAICETTTPTVDEISLGVGDMGFNSEQNDGWEVYARKTKNKSGSSAGKQWVPQNPSQKTWGNQNAKAWGHPDVVRKLGMRNNVGPGQGSRNNWSTPIDPRKPAGRDNSRPQLYDGGLGNCYTPSPAAVPPALKNGWDWSARAASTDPKEDQDASPVADSVKGSEHDGEDNESDFLDESDDDLRSDEFDSDVAEMSYETRKKNRWIKELFESLESLAVTEINDPERQWHCPACKGGPGAIEWFTGLQSLMTHAKTKGVRVKIHRELAELLEEELREIGTSVVPPGEVYGRWDGIEFKDKEIVWPPMVIIMNTRHDKGENDKWIGMGNQELLEYFSSYAAVKARHSYGPQGHRGMSVLIFEASAVGYIEADRLHEHFSENGRDRDAWERRAARFYSGGKRLLYGYMAEKRDIDSFNQHSPGKSRLKFEMRSYQEAVGNPAKQMMEDNQQLNWFKNKAAKHQMQAKALEQSLTLVSEKHRQTLEENKIVRLKTKIHHEQIKEEMEYQEQFFKDQIQIIHDARTAEEEKFEKVQQEQREMAQQSNASTSSVEDHRVRAERVAKFIKLQDKEMEEFVEERENLLRSHEDRIAALRRKYWEAEVELEKNFDLELAKLMEKYSPEQSQ
Turning to B1, the binding result in assay [3] is listed as “binds”.

B2: NbSGS3-Y^N (protein, UniProt X4YFK1 1-635)
chain: MSSSKGVGKSSAKQKAICETTTPTVDEISLGVGDMGFNSEQNDGWEVYARKTKNKSGSSAGKQWVPQNPSQKTWGNQNAKAWGHPDVVRKLGMRNNVGPGQGSRNNWSTPIDPRKPAGRDNSRPQLYDGGLGNCYTPSPAAVPPALKNGWDWSARAASTDPKEDQDASPVADSVKGSEHDGEDNESDFLDESDDDLRSDEFDSDVAEMSYETRKKNRWIKELFESLESLAVTEINDPERQWHCPACKGGPGAIEWFTGLQSLMTHAKTKGVRVKIHRELAELLEEELREIGTSVVPPGEVYGRWDGIEFKDKEIVWPPMVIIMNTRHDKGENDKWIGMGNQELLEYFSSYAAVKARHSYGPQGHRGMSVLIFEASAVGYIEADRLHEHFSENGRDRDAWERRAARFYSGGKRLLYGYMAEKRDIDSFNQHSPGKSRLKFEMRSYQEAVGNPAKQMMEDNQQLNWFKNKAAKHQMQAKALEQSLTLVSEKHRQTLEENKIVRLKTKIHHEQIKEEMEYQEQFFKDQIQIIHDARTAEEEKFEKVQQEQREMAQQSNASTSSVEDHRVRAERVAKFIKLQDKEMEEFVEERENLLRSHEDRIAALRRKYWEAEVELEKNFDLELAKLMEKYSPEQSQ
As to B2, the binding result in assay [4] is “no binding”.
